Test results as given in paper PMC5667935.
These are yes or no findings as the source states them, for the method shown. Some results given as binding are weak or reduced against the parent protein; the word gives no strength.

Amino acid sequences for entries named in this document (tags omitted). Residues count along the entry.
UniProt G3I8R9, residues 19-654: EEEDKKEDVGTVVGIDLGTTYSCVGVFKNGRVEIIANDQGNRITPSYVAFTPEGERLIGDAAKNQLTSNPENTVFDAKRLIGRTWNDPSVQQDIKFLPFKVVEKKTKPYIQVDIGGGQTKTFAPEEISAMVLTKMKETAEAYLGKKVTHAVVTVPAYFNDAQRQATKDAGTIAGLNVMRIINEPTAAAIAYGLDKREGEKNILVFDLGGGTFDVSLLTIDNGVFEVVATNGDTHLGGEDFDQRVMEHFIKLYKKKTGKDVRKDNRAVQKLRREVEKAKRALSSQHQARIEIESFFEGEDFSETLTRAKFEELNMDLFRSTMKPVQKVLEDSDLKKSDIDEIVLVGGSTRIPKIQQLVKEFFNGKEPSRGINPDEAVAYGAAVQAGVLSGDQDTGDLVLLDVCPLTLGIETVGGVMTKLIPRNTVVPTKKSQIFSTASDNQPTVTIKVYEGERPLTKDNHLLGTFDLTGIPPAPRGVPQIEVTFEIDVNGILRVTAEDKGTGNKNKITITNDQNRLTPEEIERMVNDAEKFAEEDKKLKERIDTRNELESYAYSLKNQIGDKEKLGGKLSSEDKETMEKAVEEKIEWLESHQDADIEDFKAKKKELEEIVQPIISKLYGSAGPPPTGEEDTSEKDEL

Columns and labels:
[1] = target: AMPylated wildtype Chinese hamster BiP (BiP^WT-AMP) (Chinese hamster (Cricetulus griseus)) (UniProt G3I8R9); experiment: SEC; analytical SEC, BiP at 50 µM in HKM buffer, room temperature, with 1.5 mM ATP and GST-J^WT (1.25-10 µM); J domain-mediated BiP oligomerization; both purified
[2] = target: AMPylated wildtype Chinese hamster BiP (BiP^WT-AMP) (Chinese hamster (Cricetulus griseus)) (UniProt G3I8R9); experiment: SEC; analytical SEC, BiP at 50 µM in HKM buffer, room temperature, with 1.5 mM ATP; self-association; both purified
[3] = target: AMPylated wildtype Chinese hamster BiP (BiP^WT-AMP) (Chinese hamster (Cricetulus griseus)) (UniProt G3I8R9); experiment: SEC; analytical SEC (SEC-3 HPLC column), BiP at 50 µM in HKM buffer, room temperature, no added nucleotide or 1.5 mM ADP; self-association (monomer, dimer, trimer, HMW oligomers); both purified
[4] = target: wildtype Chinese hamster BiP, unmodified (BiP^WT) (Chinese hamster (Cricetulus griseus)) (UniProt G3I8R9); experiment: condition: only with 1.5 mM ATP and GST-J^QPD instead of GST-J^WT; SEC; analytical SEC, BiP at 50 µM in HKM buffer, room temperature, with 1.5 mM ATP and mutant GST-J^QPD; self-association; both purified
[5] = target: wildtype Chinese hamster BiP, unmodified (BiP^WT) (Chinese hamster (Cricetulus griseus)) (UniProt G3I8R9); experiment: SEC; analytical SEC, BiP at 50 µM in HKM buffer, room temperature, with 1.5 mM ATP; self-association; both purified
[6] = target: wildtype Chinese hamster BiP, unmodified (BiP^WT) (Chinese hamster (Cricetulus griseus)) (UniProt G3I8R9); experiment: as above; remark: listed apart in the source

binding [1] | binding [2] | binding [3] | binding [4] | binding [5] | binding [6] | Substance
binds weakly | no binding (condition: with 1.5 mM ATP) | binds weakly | – | – | – | AMPylated wildtype Chinese hamster BiP (BiP^WT-AMP) (from UniProt G3I8R9 19-654)
– | – | – | no binding | no binding (condition: with 1.5 mM ATP) | binds weakly | wildtype Chinese hamster BiP, unmodified (BiP^WT) (from UniProt G3I8R9 19-654)
